PubChem BioAssay AID1347076 (National Center for Advancing Translational Sciences (NCATS), 2019)
Hit rate of the full screen: of about 400,000 compounds, about 13,000 (3.2%) were called active. This list was built around the results that the source calls inconclusive (neither active nor inactive); the mix of calls is not that of the screen. The call rests on the fitted dose curve; in most records, active means well fitted cell-killing curve with a large enough effect; inconclusive means small, poorly fitted or top-dose-only effect, or effect the other way; inactive means flat fitted curve, though single readings scatter. Potencies of inconclusive entries are doubtful fits and often do not repeat.

Test: qHTS assay for MDR1-selective chemotherapeutics: Primary screen using the drug-selected MDR subline cells KB-V1; further: nearly all actives have a fitted effect of over 60% in size
Settings: KB-V1 MDR cells viability, CellTiter-Glo, 72 h; series mostly up to 46.1 µM
Summary of the method: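 KB-V1 cells (P-gp-expressing MDR subline of KB-3-1) in phenol-red-free DMEM with 10% FBS were exposed to library compounds over a concentration series for 72 h at 37 degrees C. Viability read by CellTiter-Glo luminescence; concentration-effect curves fitted after normalization.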
Potency means the concentration at half of the fitted maximal effect.

SMILES | Potency
CCN(CC)c1ccc(S(=O)(=O)N2CCOCC2)cc1NC(=O)CSc1ccccc1 | inconclusive: 18.4 µM [cytotoxic, single point]
CCOc1ccc(C(=O)Nc2ccc(-c3nc4ccccc4s3)c(C)c2)cc1OCC | inactive
Cc1cc2nc(-c3cccc(NC(=O)c4ccc(Br)o4)c3C)oc2cc1C | inactive
CCc1cc(C(c2ccncc2)N2CCN(C)CC2)c(NC(=O)c2ccccc2)s1 (configuration not stated) | active: 20.6 µM
Cc1csc2c(N3CCN(C(=S)Nc4ccc(C(F)(F)F)cc4)CC3)ncnc12 | inactive
CN(CCOc1ccccc1Cl)Cc1ccccc1 | inactive
C#CCN(Cc1ccco1)C(=O)c1cc(COc2ccc(F)cc2Cl)on1 | inconclusive: 18.4 µM [cytotoxic, single point]
Cc1cccc(-n2c(C)nnc2SCC(=O)NC(C)c2ccco2)c1 (configuration not stated) | inactive
COc1ccc(CCNC(=O)c2c(C)nn(-c3ccc(F)cc3)c2-n2cccc2)c(OC)c1OC | active: 11.6 µM
CC(C)c1cc(Cn2c3ccccc3c(=O)n2C(C)C)on1 | inconclusive: 29.1 µM [cytotoxic, single point]
NC(=O)COC(=O)c1cc([N+](=O)[O-])ccc1NCCO | inactive
O=C(O)/C(=C1/OC(=O)c2ccccc21)c1ccccc1 | inconclusive: 0.411 µM [rising, full curve]
CCNC(=O)/C(C#N)=C/c1c(N2CC(C)OC(C)C2)nc2ccccn2c1=O (configuration not stated) | inconclusive: 23.1 µM [cytotoxic, single point]
COC(=O)c1sc2nc(C)c([N+](=O)[O-])c(C)c2c1N | inconclusive: 16.4 µM [cytotoxic, single point]
O=S(=O)(NC1CCCc2ccccc21)c1cnc[nH]1 (configuration not stated) | inactive
Cc1cccc(NC(=O)Nc2ccccc2[N+](=O)[O-])n1 | inconclusive: 16.4 µM [cytotoxic, partial curve, poor fit]
Cc1ccc(Nc2sc(C(=O)c3ccccc3)c(N)c2S(=O)(=O)c2ccccc2)c(C)c1 | inactive
CCCCNCc1cc(Br)c(OCC(=O)N2CCOCC2)c(OC)c1 | inconclusive: 11.6 µM [cytotoxic, partial curve, poor fit]
COc1ccc(/C=C/C(=O)Nc2ccc(S(=O)(=O)N3CCOCC3)cc2)c(OC)c1 | inactive
CCn1c(=O)n(CC)c2cc(N3CCCC3)c(NC(=O)c3cccc(Cl)c3)cc21 | inconclusive: 10.3 µM [cytotoxic, partial curve]
O=C1[C@H](Oc2ccccc2)[C@@H](c2ccccc2)N1c1ccncc1 | inactive
Cc1ccc(-c2nc(NCCCO)c3ccccc3n2)cc1 | inconclusive: 25.9 µM [cytotoxic, single point]

An excerpt from the list above, for reference:
SMILES | Potency
CCNC(=O)/C(C#N)=C/c1c(N2CC(C)OC(C)C2)nc2ccccn2c1=O (configuration not stated) | inconclusive: 23.1 µM [cytotoxic, single point]
COC(=O)c1sc2nc(C)c([N+](=O)[O-])c(C)c2c1N | inconclusive: 16.4 µM [cytotoxic, single point]
O=S(=O)(NC1CCCc2ccccc21)c1cnc[nH]1 (configuration not stated) | inactive
Cc1cccc(NC(=O)Nc2ccccc2[N+](=O)[O-])n1 | inconclusive: 16.4 µM [cytotoxic, partial curve, poor fit]
Cc1ccc(Nc2sc(C(=O)c3ccccc3)c(N)c2S(=O)(=O)c2ccccc2)c(C)c1 | inactive
